The target in test [1] is BMP receptor II (endogenous, in MC3T3-E1 preosteoblasts) (mouse) (UniProt O35607). Description: confocal microscopy co-localization.
The target is the same in test [2]. Description: confocal microscopy co-localization of FITC-labeled protein with anti-BMP receptor II staining in MC3T3-E1 preosteoblasts.

Chains of the proteins cited; added tags and fusions are not shown. Residues count along the entry.
UniProt O35607, residues 27-1038: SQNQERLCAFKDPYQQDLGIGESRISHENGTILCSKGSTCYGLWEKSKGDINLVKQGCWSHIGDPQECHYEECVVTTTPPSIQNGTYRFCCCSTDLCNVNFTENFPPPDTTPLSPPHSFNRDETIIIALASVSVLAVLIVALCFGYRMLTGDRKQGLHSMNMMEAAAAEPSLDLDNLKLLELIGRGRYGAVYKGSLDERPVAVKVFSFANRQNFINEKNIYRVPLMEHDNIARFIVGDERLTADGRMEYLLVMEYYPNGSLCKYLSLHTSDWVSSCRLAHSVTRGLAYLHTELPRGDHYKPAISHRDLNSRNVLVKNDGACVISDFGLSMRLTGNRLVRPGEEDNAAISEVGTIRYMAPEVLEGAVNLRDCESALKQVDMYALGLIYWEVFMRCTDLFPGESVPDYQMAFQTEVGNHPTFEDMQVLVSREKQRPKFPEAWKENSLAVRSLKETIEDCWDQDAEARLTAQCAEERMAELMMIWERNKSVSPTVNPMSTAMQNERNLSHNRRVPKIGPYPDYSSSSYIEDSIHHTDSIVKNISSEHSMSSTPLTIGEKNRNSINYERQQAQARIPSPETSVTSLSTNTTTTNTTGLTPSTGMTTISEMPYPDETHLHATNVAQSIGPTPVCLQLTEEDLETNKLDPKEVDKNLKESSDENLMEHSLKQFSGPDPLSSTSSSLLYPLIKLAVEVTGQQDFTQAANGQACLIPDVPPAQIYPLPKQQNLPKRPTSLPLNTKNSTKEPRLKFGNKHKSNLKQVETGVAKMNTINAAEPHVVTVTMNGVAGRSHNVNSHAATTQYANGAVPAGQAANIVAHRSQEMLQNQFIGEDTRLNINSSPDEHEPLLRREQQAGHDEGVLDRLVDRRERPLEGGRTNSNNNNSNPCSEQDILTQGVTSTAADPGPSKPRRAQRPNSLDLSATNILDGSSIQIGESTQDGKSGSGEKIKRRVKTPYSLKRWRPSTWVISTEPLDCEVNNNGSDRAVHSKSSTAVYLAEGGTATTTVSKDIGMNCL

Results are given in words; binding and its absence hold for the method and conditions named. Some entries that bind do so weakly or less than the wild type. Sequences can lack the tags named with a protein.

B1: aMTD442-fused CP-BMP2 recombinant protein (cell-permeable BMP2, M form, fused with His-tag, aMTD442 and SDA) (protein)
chain: MGSSHHHHHHSSGLVPRGSALAALVPAVLVPQAKHKQRKRLKSSCKRHPLYVDFSDVGWNDWIVAPPGYHAFYCHGECPFPLADHLNSTNHAIVQTLVNSVNSKIPKACCVPTELSAISMLYLDENEKVVLKNYQDMVVEGCGCRYMANITVFYNEDFQGKQVDLPPGNYTRAQLAALGIENNTISSVKVPPGVKAILYQNDGFAGDQIEVVANAEELGPLNNNVSSIRVISVPVQPRMANITVFYNEDFQGKQVDLPPGNYTRAQLAALGIENNTISSVKVPPGVKAILYQNDGFAGDQIEVVANAEELGPLNNNVSSIRVISVPVQPR
modifications: FITC-labeled (sites not given)
On to B1, for which the binding entry in test [1] and in test [2] was “binds” each time.

The values are drawn from patent publication US20180237485A1.
